These are yes or no findings as the source states them, for the method shown. Binding seen in cells or lysates may run through a third protein. Some binding calls cover weakened binding; strength is not graded here.
Molecular target: human α7-nAChR-GFP receptors (human) (UniProt P36544)
Assay: co-IP; lysates of HEK293 cells with α7-nAChR-GFP incubated with 2 μM Aβ42 and 5 μM active (YEVHHQ) or inactive (SEVAAQ) Aβcore peptide for 18 h; immunoprecipitated with anti-GFP antibody; only the binder purified

Chains of the proteins cited; added tags and fusions are not shown. Residues count along the entry.
UniProt P36544, residues 23-502: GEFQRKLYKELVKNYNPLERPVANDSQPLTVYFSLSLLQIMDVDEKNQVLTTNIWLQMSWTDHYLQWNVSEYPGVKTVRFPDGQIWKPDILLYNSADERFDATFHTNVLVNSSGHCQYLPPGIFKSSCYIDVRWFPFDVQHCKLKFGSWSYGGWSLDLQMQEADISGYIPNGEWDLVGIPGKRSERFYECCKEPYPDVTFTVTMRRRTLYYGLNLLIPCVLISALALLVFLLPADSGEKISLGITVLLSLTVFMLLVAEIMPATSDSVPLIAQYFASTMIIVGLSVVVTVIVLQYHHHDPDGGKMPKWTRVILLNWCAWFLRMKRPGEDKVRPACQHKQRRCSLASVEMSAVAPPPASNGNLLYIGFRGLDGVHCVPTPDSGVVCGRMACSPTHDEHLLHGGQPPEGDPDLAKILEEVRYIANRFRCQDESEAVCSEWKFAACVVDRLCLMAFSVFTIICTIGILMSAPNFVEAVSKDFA

B1: Aβcore peptide (YEVHHQ) (peptide)
peptide: YEVHHQ
  binding: binds
